These are yes or no findings as the source states them, for the method shown.
Biological target: LRRK1^RCKW (LRRK1 residues 631 to 2015) (human) (UniProt Q38SD2)
Assay: cryo-EM structure; LRRK1^RCKW alone, 2–6 μM, 20 mM HEPES pH 7.4, 80 mM NaCl, 0.5 mM TCEP, 2.5 mM MgCl2, 20 μM GDP, no ATP; 5.8 Å map of a monomer; both purified

binding: no binding (tested: 2–6 μM protein)
B1: LRRK1^RCKW (LRRK1 residues 631 to 2015) (domain or fragment, UniProt Q38SD2 631-2015)
chain: RKAEKCKLMKMIIVGPPRQGKSTLLEILQTGRAPQVVHGEATIRTTKWELQRPAGSRAKVESVEFNVWDIGGPASMATVNQCFFTDKALYVVVWNLALGEEAVANLQFWLLNIEAKAPNAVVLVVGTHLDLIEAKFRVERIATLRAYVLALCRSPSGSRATGFPDITFKHLHEISCKSLEGQEGLRQLIFHVTCSMKDVGSTIGCQRLAGRLIPRSYLSLQEAVLAEQQRRSRDDDVQYLTDRQLEQLVEQTPDNDIKDYEDLQSAISFLIETGTLLHFPDTSHGLRNLYFLDPIWLSECLQRIFNIKGSRSVAKNGVIRAEDLRMLLVGTGFTQQTEEQYFQFLAKFEIALPVANDSYLLPHLLPSKPGLDTHGMRHPTANTIQRVFKMSFVPVGFWQRFIARMLISLAEMDLQLFENKKNTKSRNRKVTIYSFTGNQRNRCSTFRVKRNQTIYWQEGLLVTFDGGYLSVESSDVNWKKKKSGGMKIVCQSEVRDFSAMAFITDHVNSLIDQWFPALTATESDGTPLMEQYVPCPVCETAWAQHTDPSEKSEDVQYFDMEDCVLTAIERDFISCPRHPDLPVPLQELVPELFMTDFPARLFLENSKLEHSEDEGSVLGQGGSGTVIYRARYQGQPVAVKRFHIKKFKNFANVPADTMLRHLRATDAMKNFSEFRQEASMLHALQHPCIVALIGISIHPLCFALELAPLSSLNTVLSENARDSSFIPLGHMLTQKIAYQIASGLAYLHKKNIIFCDLKSDNILVWSLDVKEHINIKLSDYGISRQSFHEGALGVEGTPGYQAPEIRPRIVYDEKVDMFSYGMVLYELLSGQRPALGHHQLQIAKKLSKGIRPVLGQPEEVQFRRLQALMMECWDTKPEKRPLALSVVSQMKDPTFATFMYELCCGKQTAFFSSQGQEYTVVFWDGKEESRNYTVVNTEKGLMEVQRMCCPGMKVSCQLQVQRSLWTATEDQKIYIYTLKGMCPLNTPQQALDTPAVVTCFLAVPVIKKNSYLVLAGLADGLVAVFPVVRGTPKDSCSYLCSHTANRSKFSIADEDARQNPYPVKAMEVVNSGSEVWYSNGPGLLVIDCASLEICRRLEPYMAPSMVTSVVCSSEGRGEEVVWCLDDKANSLVMYHSTTYQLCARYFCGVPSPLRDMFPVRPLDTEPPAASHTANPKVPEGDSIADVSIMYSEELGTQILIHQESLTDYCSMSSYSSSPPRQAARSPSSLPSSPASSSSVPFSTDCEDSDMLHTPGAASDRSEHDLTPMDGETFSQHLQAVKILAVRDLIWVPRRGGDVIVIGLEKDSGAQRGRVIAVLKARELTPHGVLVDAAVVAKDTVVCTFENENTEWCLAVWRGWGAREFDIFYQSYEELGRLEACTRKRR
